Measurements reported in PubChem BioAssay AID504791 (Drosophila RNAi Screening Center, 2011)
The deposit covers about 23,000 reagents; this is an unselected part of those with a known target gene and a result. Of all reagents, 199 (0.86%) are marked active. 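Plate-scaled ratios behind the calls are not deposited; printed light signals are raw; many rows marked increased or decreased are still called inactive.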 Entries without a mark were called inactive. Names joined by + are all predicted targets of the reagent. Not stated in the record: the direction of the score.

- Assay: 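Genes whose knock-down strengthens or weakens small-RNA reporter silencing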 (primary screen)
- Cell system: Drosophila S2-derived reporter cells
- Knock-down reagent: long dsRNA against Drosophila genes, about 150-250 ng dsRNA per well (siRNA assay); about 80-120 ng (miRNA assay)
- Time to read-out: about 5 days (siRNA assay); about 4 days (miRNA assay)
- Treatment: copper sulfate induction of reporters: 25 µM (siRNA assay); 200 mM stated (miRNA assay), 1-2 days before reading
- Read-out: 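Per-well ratio of Renilla over firefly light, expressed relative to that plate's average ratio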
- Rule for the call: 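a well was a first-pass pick when its plate-scaled ratio rose above 1.5 (siRNA assay) or 1.6 (miRNA assay), or dropped below 0.6; a gene counted only if two separate dsRNAs agreed on retest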

predicted target,DRSC id,stable siRNA reporter change,miRNA reporter change,"stable assay Renilla, run 1 (luminescence)","stable assay firefly, run 1 (luminescence)"
CG9072,DRSC20147,,,5280,4.05e5
CG12994,DRSC19192,,,2675,3.26e5
CG12994,DRSC19514,,,6446,6.62e5
Patr-1 (Protein associated with topo II related - 1),DRSC14159,,,8633,3.10e5
Hsp23 (Heat shock protein 23),DRSC11188,,,7494,3.35e5
ry (rosy),DRSC17048,,,7958,4.73e5
CG6843,DRSC10725,,,8518,5.61e5
Nacalpha (Nascent polypeptide associated complex protein alpha subunit),DRSC07477,,,5762,2.53e5
Cyp4g15 (Cytochrome P450 4g15),DRSC20240,,,5151,3.34e5
CG7530,DRSC16255,,,3615,3.72e5
CG34161,DRSC01132,,,5327,4.18e5
CG42232,DRSC15018,,,9177,3.06e5
CG42232,DRSC15019,,,8539,3.65e5
CG5399,DRSC15791,,,8282,4.29e5
loco (locomotion defects),DRSC15202,,,7222,3.25e5
loco (locomotion defects),DRSC16989,,,10747,3.78e5
CG31460,DRSC14370,,,9442,4.63e5
Csl4,DRSC02944,,,7238,3.44e5
Csl4,DRSC22664,,,5602,4.23e5
CheB53b (Chemosensory protein B 53b),DRSC05613,,,5984,4.27e5
CG42634 + CG42635,DRSC02450,,,8286,3.91e5
gl (glass),DRSC16957,,,8219,4.08e5
CG7742,DRSC03066,,,11251,4.96e5
mthl8 (methuselah-like 8),DRSC08211,,,10231,4.38e5
mthl8 (methuselah-like 8),DRSC08311,,,6236,3.62e5
CG31343,DRSC15887,,,10976,5.11e5
Ip259 (Intronic Protein 259),DRSC03352,,,10622,1.08e6
trio,DRSC07928,,,5644,4.25e5
trio,DRSC08527,,,6046,3.10e5
trio,DRSC08740,,,5815,4.22e5
CG34249 (retired record),DRSC09431,,,6292,3.41e5
Ir52a (Ionotropic receptor 52a),DRSC06262,,,7662,4.34e5
pasi1 (pasiflora 1),DRSC16299,,,4375,3.10e5
pasi1 (pasiflora 1),DRSC22385,,,8938,6.90e5
CG33796,DRSC09417,,,6091,4.55e5
brv2 (brivido-2),DRSC10226,,,6958,4.70e5
Mco4 (Multicopper oxidase 4),DRSC20061,,,5092,3.79e5
RpS14a (Ribosomal protein S14a),DRSC18710,,,5755,4.08e5
Pdss2 (Decaprenyl diphosphate synthase subunit 2),DRSC11625,,,9855,3.53e5
fok (fledgling of Klp38B),DRSC02103,,,7066,4.12e5
RpL31 (Ribosomal protein L31),DRSC06716,,,7922,3.20e5
robl62A,DRSC08153,,,7156,4.20e5
COX3 (retired record),DRSC21279,,,5034,3.89e5
RpL36A (Ribosomal protein L36A),DRSC03055,,,8130,3.63e5
pasi2 (pasiflora 2),DRSC16380,,,5719,5.02e5
Parp1 (Poly-(ADP-ribose) polymerase 1),DRSC07725,,,6772,4.28e5
Parp1 (Poly-(ADP-ribose) polymerase 1),DRSC07778,,,6338,4.01e5
Parp1 (Poly-(ADP-ribose) polymerase 1),DRSC07780,,,6796,3.54e5
CG3457,DRSC18509,,,8916,6.12e5
CG12783,DRSC14538,,,7550,4.94e5
blp (black pearl),DRSC15757,,,8322,5.05e5
Yp2 (Yolk protein 2),DRSC18732,,,8028,3.87e5
"Pkg21D (Protein kinase, cGMP-dependent at 21D)",DRSC00772,,,28189,2.38e5
GATAd,DRSC02803,,,27982,5.21e5
CG15147,DRSC02447,,,4947,4.12e5
CG15147,DRSC02448,,,8021,6.29e5
CheA86a (Chemosensory protein A 86a),DRSC12839,,,4151,4.25e5
emei,DRSC10897,,,3652,4.24e5
emei,DRSC22684,,,3851,3.17e5
PIP82,DRSC18694,,,6716,3.82e5
CG8858,DRSC07290,,,6998,4.32e5
CG32486,DRSC08413,,,11326,5.15e5
CG32486,DRSC08488,,,6370,5.31e5
CG13841,DRSC14691,,,6579,3.90e5
CG13841,DRSC26257,,reporter ratio lowered past the hit cutoff,,
RagC-D (Ras-related GTP binding C/D),DRSC07239,reporter ratio lowered past the hit cutoff,,3911,3.47e5
TwdlE (TweedleE),DRSC02392,,,6858,3.67e5
Acp29AB (Accessory gland protein 29AB),DRSC01857,,,6715,3.82e5
Cyp4ae1 (Cytochrome P450 4ae1),DRSC18455,,,8048,4.94e5
CheB38a (Chemosensory protein B 38a),DRSC03205,,,5331,4.61e5
Pde8 (Phosphodiesterase 8),DRSC04503,,,1.25e5,4.81e5
Edc3 (Enhancer of decapping 3),DRSC10620,,,6942,3.36e5
CG40005 (retired record) + cta,DRSC03763,,,5358,4.25e5
en (engrailed),DRSC07609,,,5947,3.19e5
CG13196,DRSC06321,,,5074,2.27e5
CG15252,DRSC17981,,,5208,3.59e5
CG2816,DRSC00539,,,8054,5.08e5
CG15597,DRSC12283,,,4044,4.86e5
pont (pontin),DRSC17029,,,4471,3.31e5
CG7565,DRSC10881,,,8203,5.13e5
Neto (Neuropilin and tolloid-like),DRSC18982,,,5163,3.82e5
Neto (Neuropilin and tolloid-like),DRSC19503,,,8356,5.82e5
Neto (Neuropilin and tolloid-like),DRSC19716,,,4311,3.35e5
Neto (Neuropilin and tolloid-like),DRSC19717,,,4403,3.42e5
